± gives the standard deviation of the averaged measurements. Only a part is listed here, and it is no random draw. Small differences around the control level are noise.

The chains behind the UniProt entries cited, without tags or fusion partners. Where a name states a change or a piece, a line headed by the entry shows the natural chain unless it says otherwise.
UniProt Q9Y5L0: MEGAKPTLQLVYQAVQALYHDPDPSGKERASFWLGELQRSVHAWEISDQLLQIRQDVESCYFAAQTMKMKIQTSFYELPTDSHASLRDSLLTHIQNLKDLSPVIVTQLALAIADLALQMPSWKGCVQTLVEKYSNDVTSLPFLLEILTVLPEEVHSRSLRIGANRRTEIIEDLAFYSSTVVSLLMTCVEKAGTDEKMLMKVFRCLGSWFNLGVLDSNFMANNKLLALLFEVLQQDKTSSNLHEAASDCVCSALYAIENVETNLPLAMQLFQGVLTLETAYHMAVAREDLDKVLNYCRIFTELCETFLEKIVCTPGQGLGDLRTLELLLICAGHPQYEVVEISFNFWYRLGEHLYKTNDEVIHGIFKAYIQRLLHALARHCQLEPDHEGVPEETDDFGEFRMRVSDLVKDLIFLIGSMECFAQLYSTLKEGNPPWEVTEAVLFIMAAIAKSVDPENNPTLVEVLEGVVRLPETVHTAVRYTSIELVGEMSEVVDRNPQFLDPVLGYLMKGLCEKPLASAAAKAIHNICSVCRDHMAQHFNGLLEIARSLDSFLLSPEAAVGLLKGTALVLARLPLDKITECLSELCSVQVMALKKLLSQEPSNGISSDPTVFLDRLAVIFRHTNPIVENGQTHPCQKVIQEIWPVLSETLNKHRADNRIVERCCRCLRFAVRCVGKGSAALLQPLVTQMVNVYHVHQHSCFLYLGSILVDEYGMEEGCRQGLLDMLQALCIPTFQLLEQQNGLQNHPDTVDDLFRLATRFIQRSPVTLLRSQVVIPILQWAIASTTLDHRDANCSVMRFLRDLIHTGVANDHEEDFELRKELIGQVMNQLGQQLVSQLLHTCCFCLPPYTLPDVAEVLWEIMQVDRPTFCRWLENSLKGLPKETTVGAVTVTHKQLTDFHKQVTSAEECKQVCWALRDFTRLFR
UniProt Q9Y5M8: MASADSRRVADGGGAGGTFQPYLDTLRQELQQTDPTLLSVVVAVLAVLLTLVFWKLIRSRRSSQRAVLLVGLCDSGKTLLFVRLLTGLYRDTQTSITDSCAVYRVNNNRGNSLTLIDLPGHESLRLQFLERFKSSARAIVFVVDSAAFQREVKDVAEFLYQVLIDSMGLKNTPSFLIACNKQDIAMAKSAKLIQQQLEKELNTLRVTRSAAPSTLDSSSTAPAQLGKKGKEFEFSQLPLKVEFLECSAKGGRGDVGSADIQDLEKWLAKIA
UniProt Q9Y6D5: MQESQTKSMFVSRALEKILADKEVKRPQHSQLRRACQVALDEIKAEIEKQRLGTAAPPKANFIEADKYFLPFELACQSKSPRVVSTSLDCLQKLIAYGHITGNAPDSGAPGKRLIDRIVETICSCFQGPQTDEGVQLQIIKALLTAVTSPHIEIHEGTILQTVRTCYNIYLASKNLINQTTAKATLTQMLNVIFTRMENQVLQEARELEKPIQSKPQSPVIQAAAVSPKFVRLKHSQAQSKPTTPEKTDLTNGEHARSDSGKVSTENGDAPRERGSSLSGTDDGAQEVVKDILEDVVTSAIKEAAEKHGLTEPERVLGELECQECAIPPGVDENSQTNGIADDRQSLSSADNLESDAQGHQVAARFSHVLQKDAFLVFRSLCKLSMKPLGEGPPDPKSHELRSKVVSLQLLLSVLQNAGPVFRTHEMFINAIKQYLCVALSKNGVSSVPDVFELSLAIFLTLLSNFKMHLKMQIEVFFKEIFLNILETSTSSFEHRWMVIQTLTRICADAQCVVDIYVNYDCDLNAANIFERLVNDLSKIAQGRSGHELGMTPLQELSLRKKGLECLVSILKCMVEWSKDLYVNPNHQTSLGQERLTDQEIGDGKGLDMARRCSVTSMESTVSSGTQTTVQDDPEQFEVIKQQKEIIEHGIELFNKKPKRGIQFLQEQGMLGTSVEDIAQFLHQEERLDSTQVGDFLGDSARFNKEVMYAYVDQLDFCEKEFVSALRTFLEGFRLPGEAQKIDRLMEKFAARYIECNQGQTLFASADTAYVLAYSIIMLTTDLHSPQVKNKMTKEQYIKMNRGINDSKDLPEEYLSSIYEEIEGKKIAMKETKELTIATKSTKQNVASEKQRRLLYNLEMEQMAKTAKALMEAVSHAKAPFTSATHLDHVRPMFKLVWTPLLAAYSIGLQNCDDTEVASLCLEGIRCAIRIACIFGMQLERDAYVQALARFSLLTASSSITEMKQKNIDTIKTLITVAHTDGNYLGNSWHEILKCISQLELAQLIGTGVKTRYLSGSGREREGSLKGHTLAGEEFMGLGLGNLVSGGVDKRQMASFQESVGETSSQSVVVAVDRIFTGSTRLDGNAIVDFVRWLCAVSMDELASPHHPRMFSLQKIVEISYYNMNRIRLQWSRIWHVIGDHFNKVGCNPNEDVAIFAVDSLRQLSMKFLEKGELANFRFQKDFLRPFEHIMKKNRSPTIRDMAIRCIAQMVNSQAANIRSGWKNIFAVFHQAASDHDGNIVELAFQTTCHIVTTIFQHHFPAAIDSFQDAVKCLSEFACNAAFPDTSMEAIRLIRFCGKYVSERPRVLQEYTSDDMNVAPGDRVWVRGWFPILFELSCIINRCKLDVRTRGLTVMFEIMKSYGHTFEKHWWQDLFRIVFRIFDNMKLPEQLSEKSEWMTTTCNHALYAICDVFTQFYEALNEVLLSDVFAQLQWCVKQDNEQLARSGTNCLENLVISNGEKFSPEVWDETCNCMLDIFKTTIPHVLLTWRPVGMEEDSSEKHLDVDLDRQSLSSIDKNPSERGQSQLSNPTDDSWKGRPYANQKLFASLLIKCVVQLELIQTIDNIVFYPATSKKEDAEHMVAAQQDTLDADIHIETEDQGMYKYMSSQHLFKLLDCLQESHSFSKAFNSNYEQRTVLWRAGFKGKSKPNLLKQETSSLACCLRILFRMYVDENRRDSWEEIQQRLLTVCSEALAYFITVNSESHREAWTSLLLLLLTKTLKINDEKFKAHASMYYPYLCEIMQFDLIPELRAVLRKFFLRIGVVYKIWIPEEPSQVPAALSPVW
UniProt Q9Y6N5: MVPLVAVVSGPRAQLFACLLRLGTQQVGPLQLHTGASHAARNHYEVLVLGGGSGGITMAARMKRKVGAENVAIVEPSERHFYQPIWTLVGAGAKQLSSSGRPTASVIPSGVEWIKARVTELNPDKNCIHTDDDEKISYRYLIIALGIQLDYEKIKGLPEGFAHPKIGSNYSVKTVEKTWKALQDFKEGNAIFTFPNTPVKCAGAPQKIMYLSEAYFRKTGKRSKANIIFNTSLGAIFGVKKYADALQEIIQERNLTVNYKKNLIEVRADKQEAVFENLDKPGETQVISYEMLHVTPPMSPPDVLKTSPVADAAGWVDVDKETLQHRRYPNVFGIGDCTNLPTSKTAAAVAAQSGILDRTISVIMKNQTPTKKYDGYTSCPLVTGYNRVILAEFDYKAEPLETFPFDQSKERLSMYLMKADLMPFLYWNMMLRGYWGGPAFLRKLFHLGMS
UniProt Q9Y4Y9: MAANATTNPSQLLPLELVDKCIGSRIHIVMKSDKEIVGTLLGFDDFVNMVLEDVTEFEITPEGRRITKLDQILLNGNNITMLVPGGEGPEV
UniProt Q9Y4L1: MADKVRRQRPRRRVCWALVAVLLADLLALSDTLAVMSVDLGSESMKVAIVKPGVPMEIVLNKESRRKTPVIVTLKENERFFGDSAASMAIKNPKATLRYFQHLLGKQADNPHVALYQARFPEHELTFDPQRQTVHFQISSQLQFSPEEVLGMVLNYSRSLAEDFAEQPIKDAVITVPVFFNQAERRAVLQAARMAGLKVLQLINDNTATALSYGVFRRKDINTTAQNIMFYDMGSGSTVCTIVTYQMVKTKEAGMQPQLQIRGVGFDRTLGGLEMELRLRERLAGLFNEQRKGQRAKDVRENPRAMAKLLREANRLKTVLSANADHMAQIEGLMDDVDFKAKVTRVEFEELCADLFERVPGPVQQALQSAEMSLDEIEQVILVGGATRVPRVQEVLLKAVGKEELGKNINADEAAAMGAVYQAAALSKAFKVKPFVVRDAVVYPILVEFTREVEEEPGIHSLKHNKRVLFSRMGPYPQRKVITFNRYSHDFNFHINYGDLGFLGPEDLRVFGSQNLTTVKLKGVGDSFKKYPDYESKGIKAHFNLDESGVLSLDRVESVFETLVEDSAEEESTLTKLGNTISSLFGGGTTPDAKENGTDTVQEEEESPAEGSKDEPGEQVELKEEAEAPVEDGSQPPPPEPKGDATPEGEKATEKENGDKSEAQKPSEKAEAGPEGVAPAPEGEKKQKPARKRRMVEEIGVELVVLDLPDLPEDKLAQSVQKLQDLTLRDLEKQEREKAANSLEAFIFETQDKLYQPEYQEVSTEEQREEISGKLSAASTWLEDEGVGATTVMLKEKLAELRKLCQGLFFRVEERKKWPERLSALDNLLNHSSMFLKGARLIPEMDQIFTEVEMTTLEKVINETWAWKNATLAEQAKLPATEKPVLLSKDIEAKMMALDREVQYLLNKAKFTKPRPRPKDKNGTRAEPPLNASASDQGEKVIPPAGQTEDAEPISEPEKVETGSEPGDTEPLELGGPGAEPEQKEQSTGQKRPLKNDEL
UniProt Q9Y5R8, whole entry: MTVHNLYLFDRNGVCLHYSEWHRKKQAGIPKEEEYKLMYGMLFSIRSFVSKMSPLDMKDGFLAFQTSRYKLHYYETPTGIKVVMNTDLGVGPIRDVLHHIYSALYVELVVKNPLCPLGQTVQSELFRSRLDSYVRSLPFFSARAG
UniProt Q9Y6D6: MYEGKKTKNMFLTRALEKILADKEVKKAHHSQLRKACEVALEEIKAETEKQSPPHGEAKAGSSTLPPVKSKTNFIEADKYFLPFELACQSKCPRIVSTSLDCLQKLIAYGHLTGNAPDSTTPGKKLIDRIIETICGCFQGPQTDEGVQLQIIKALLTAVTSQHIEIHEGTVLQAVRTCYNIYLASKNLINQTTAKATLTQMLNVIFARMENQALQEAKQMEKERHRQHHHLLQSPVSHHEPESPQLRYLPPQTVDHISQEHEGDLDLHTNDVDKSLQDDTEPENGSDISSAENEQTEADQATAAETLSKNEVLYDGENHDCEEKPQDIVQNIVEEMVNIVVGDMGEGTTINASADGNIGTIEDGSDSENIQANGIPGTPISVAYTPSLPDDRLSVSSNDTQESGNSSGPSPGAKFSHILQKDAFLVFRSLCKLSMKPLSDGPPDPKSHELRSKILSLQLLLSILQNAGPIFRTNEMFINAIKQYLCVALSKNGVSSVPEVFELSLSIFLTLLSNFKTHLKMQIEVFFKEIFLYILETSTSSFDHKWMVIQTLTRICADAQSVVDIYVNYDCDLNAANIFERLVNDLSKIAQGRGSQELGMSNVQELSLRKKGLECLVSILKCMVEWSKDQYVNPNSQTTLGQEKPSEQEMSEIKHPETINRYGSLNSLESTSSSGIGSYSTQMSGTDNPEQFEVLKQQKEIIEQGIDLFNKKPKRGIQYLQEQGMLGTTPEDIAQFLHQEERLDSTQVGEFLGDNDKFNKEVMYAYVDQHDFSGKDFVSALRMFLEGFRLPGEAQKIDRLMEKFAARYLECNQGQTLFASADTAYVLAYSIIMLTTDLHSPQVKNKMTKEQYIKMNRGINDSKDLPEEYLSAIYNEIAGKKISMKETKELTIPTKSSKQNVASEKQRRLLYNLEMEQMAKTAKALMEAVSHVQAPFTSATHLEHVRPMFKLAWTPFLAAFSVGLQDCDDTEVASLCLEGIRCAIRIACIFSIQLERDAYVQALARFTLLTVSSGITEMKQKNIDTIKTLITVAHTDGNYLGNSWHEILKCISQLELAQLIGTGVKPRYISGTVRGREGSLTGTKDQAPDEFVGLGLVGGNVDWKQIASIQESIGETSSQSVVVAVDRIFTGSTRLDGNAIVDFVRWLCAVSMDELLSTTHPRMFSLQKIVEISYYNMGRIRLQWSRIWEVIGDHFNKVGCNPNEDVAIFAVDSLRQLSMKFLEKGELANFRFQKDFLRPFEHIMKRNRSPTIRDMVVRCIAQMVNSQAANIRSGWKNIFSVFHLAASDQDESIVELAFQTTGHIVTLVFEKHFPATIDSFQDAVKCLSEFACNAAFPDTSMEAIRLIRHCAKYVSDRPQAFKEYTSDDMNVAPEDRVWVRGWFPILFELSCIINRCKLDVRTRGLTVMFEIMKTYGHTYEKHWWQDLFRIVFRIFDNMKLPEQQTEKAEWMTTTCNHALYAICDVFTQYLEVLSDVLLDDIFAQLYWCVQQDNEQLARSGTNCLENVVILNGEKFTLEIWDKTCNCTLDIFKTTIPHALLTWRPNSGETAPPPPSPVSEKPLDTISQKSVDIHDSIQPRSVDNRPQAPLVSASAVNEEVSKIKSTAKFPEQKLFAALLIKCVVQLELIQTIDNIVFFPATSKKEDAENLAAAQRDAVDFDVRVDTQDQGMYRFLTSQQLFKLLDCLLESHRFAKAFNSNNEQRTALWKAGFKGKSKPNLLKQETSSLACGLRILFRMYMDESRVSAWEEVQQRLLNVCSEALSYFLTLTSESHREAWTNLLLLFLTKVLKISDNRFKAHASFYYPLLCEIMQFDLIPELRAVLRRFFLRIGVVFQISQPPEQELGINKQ

Compound in the first assay: Nc1ncnc2c1ncn2[C@@H]1O[C@H](COP(=O)(O)OP(=O)(O)NP(=O)(O)O)[C@@H](O)[C@H]1O [adenylyl imidodiphosphate]
The assay is described as follows: NP40-soluble protein abundance relative to vehicle (solubility fold change) (ratio); higher = more soluble protein in presence of AMP-PNP. The following applies: concentration: 0.1mM. In short, it runs like this:
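Jurkat crude lysate (Dounce-homogenised) was treated with eight concentrations from 0.1 to 10 mM for 10 min at room temperature, then 3 min at 37 °C. It was solubilised with 0.8% NP40 and benzonase (60 min, 4 °C) and ultracentrifuged, and the supernatant was TMT-labelled for LC-MS/MS. Intensities were vsn-normalised, and the value is the fold change against the NP40-processed vehicle per replicate, from three independent experiments.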
Consider UniProt Q9Y3R5 and related entries, for which the NP40-soluble protein abundance is 0.984 ± 0.028.
Turning to UniProt Q9Y6Q9 and related entries, the NP40-soluble protein abundance was found to be 0.962 ± 0.024.
For UniProt Q9Y4E6 and related entries, the NP40-soluble protein abundance stood at 0.966 ± 0.049.
The same measure, in the same setting: under UniProt Q9Y5L0 and related entries stands 1.01 ± 0.028; under IVNS1ABP (UniProt Q9Y6Y0), 0.981 ± 0.039; under UniProt Q9Y3L5, 1.01 ± 0.018.
Same read-out and setting: for UniProt Q9Y4Z0 and related entries the value was 0.994 ± 0.064; for UTP18 (UniProt Q9Y5J1), 1.005 ± 0.0052.
Take UniProt Q9Y5V3 and related entries: the NP40-soluble protein abundance amounted to 1.01 ± 0.069.
As to ATP6V0A2 (UniProt Q9Y487), the NP40-soluble protein abundance came out at 1.02 ± 0.023.
Turning to UniProt Q9Y6M7-13|Q9Y6M7-6, the NP40-soluble protein abundance came out at 0.963 ± 0.026.
Take WASF2 (UniProt Q9Y6W5): the NP40-soluble protein abundance turned out to be 0.993 ± 0.027.
In the case of SRPRB (UniProt Q9Y5M8), the NP40-soluble protein abundance was found to be 1 ± 0.026.
For ARFGEF2 (UniProt Q9Y6D5), the NP40-soluble protein abundance amounted to 0.986 ± 0.04.
Same read-out and setting: for UniProt Q9Y3I1 and related entries the value was 0.992 ± 0.019; for UniProt Q9Y6N5, 0.997 ± 0.046; for TRPV2 (UniProt Q9Y5S1), 1.02 ± 0.012.
On the same count and under the same terms, for LSM5 (UniProt Q9Y4Y9) the value was 1.06 ± 0.05; for RABGAP1 (UniProt Q9Y3P9), 0.964 ± 0.026; for YTHDF2 (UniProt Q9Y5A9), 1.02 ± 0.026.
Same read-out and setting: for HYOU1 (UniProt Q9Y4L1) the value was 0.977 ± 0.015; for UniProt Q9Y4P8 and related entries, 1.03 ± 0.04.
Take UniProt Q9Y450 and related entries: the NP40-soluble protein abundance was 0.963 ± 0.025.
Consider TRAPPC1 (UniProt Q9Y5R8), for which the NP40-soluble protein abundance turned out to be 1.05 ± 0.028.
Regarding ZNF330 (UniProt Q9Y3S2), the NP40-soluble protein abundance is 1 ± 0.017.
UniProt Q9Y6V0-2|Q9Y6V0-5|Q9Y6V0-6: the NP40-soluble protein abundance was determined as 0.992 ± 0.12.
As for OAS3 (UniProt Q9Y6K5), the NP40-soluble protein abundance is 0.996 ± 0.016.
As for UniProt Q9Y421 and related entries, the NP40-soluble protein abundance was 1.007 ± 0.0026.
Regarding ARFGEF1 (UniProt Q9Y6D6), the NP40-soluble protein abundance worked out at 1 ± 0.041.
Same read-out and setting: under UniProt Q9Y5S9 and related entries stands 0.952 ± 0.016; under NME7 (UniProt Q9Y5B8), 0.993 ± 0.054.
On to UniProt Q9Y5T5 and related entries, for which the NP40-soluble protein abundance came out at 0.997 ± 0.021.

Staying with this assay, now noted: concentration: 0.5mM.
For UniProt Q9Y3R5 and related entries, the NP40-soluble protein abundance is 0.998 ± 0.024.
Still for that read-out and setting: for UniProt Q9Y6Q9 and related entries the value was 0.991 ± 0.039.
Turning to UniProt Q9Y4E6 and related entries, the NP40-soluble protein abundance was determined as 0.923 ± 0.044.
Turning to UniProt Q9Y5L0 and related entries, the NP40-soluble protein abundance was determined as 1.02 ± 0.04.
The same measure, in the same setting: under IVNS1ABP (UniProt Q9Y6Y0) stands 0.987 ± 0.049; under UniProt Q9Y3L5, 1.04 ± 0.058; under UniProt Q9Y4Z0 and related entries, 1.05 ± 0.15.
With UTP18 (UniProt Q9Y5J1), the NP40-soluble protein abundance came to 1.03 ± 0.034.
Take UniProt Q9Y5V3 and related entries: the NP40-soluble protein abundance worked out at 1.01 ± 0.074.
Consider ATP6V0A2 (UniProt Q9Y487), for which the NP40-soluble protein abundance came out at 1.01 ± 0.025.
On to UniProt Q9Y6M7-13|Q9Y6M7-6, for which the NP40-soluble protein abundance was 0.9827 ± 0.007.
Regarding WASF2 (UniProt Q9Y6W5), the NP40-soluble protein abundance was found to be 0.987 ± 0.055.
Still for that read-out and setting: for SRPRB (UniProt Q9Y5M8) the value was 1.03 ± 0.017; for ARFGEF2 (UniProt Q9Y6D5), 0.958 ± 0.037.
UniProt Q9Y3I1 and related entries: the NP40-soluble protein abundance worked out at 0.981 ± 0.018.
The same measure, in the same setting: for UniProt Q9Y6N5 the value was 0.961 ± 0.068; for TRPV2 (UniProt Q9Y5S1), 0.982 ± 0.035.
For the target LSM5 (UniProt Q9Y4Y9), the NP40-soluble protein abundance turned out to be 1.05 ± 0.094.
The same measure, in the same setting: for RABGAP1 (UniProt Q9Y3P9) the value was 0.958 ± 0.038.
Same read-out and setting: for YTHDF2 (UniProt Q9Y5A9) the value was 1.04 ± 0.055; for HYOU1 (UniProt Q9Y4L1), 0.999 ± 0.023; for UniProt Q9Y4P8 and related entries, 1.02 ± 0.066.
For UniProt Q9Y450 and related entries, the NP40-soluble protein abundance is 0.988 ± 0.021.
As to TRAPPC1 (UniProt Q9Y5R8), the NP40-soluble protein abundance stood at 1.01 ± 0.065.
Consider ZNF330 (UniProt Q9Y3S2), for which the NP40-soluble protein abundance amounted to 0.999 ± 0.045.
With UniProt Q9Y6V0-2|Q9Y6V0-5|Q9Y6V0-6, the NP40-soluble protein abundance stood at 1.05 ± 0.14.
OAS3 (UniProt Q9Y6K5): the NP40-soluble protein abundance worked out at 0.9809 ± 0.007.
For the target UniProt Q9Y421 and related entries, the NP40-soluble protein abundance was 1.01 ± 0.053.
On to ARFGEF1 (UniProt Q9Y6D6), for which the NP40-soluble protein abundance was 0.979 ± 0.046.
UniProt Q9Y5S9 and related entries: the NP40-soluble protein abundance was 0.988 ± 0.068.
Still for that read-out and setting: for NME7 (UniProt Q9Y5B8) the value was 0.97 ± 0.056; for UniProt Q9Y5T5 and related entries, 0.983 ± 0.023.

Values taken from the supplement of paper PMC6411743.
